Data as given in PubChem BioAssay AID1259424 (University of Nebraska Medical Center, 2018)
The deposit covers about 14,000 reagents; shown is a part drawn at random. 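Higher correlation or smaller distance means closer resemblance to KSR1 loss; control wells, including KSR1 knockdowns, recur on many plates.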 Further read-outs or replicates are left out here. Not given: the time to read-out.

- Test: 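Find knockdowns that reproduce the expression shifts seen after KSR1 loss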 (primary screen)
- Cell system: human HCT116 colon cancer cells
- Reagent: siRNA pool against human genes, 50 nM
- Measurement: 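Log2 levels of six mRNAs (branched-DNA multiplex), adjusted by two reference genes and the non-targeting median, then scored against the average KSR1 knockdown pattern as Pearson r and euclidean distance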
- Direction: mean correlation with KSR1 profile and KSR1 correlation: higher = expression change more like KSR1 knockdown; mean distance from KSR1 profile: higher = expression change less like KSR1 knockdown

| target gene | mean correlation with KSR1 profile | mean distance from KSR1 profile | KSR1 correlation, replicate 1 | KSR1 correlation, replicate 2 |
| --- | --- | --- | --- | --- |
| LTN1 | -0.503 | 2.58 | -0.249 | -0.522 |
| PTGS1 | -0.254 | 2.15 | -0.231 | -0.477 |
| CXCR6 | 0.15 | 2.58 | 0.0633 | 0.345 |
| CTNNAL1 | -0.427 | 1.71 | -0.563 | -0.406 |
| HBS1L | 0.356 | 2.52 | 0.47 | 0.238 |
| GJA8 | -0.496 | 2.67 | -0.47 | -0.522 |
| CHRNB4 | -0.266 | 1.91 | -0.211 | -0.425 |
| ARHGAP5 | -0.92 | 1.73 | -0.909 | -0.691 |
| IFT52 | -0.619 | 2.89 | -0.519 | -0.531 |
| MFAP4 | -0.0963 | 2.55 | -0.0711 | 0.0865 |
| DISP1 | 0.293 | 4.04 | 0.22 | 0.345 |
| TOP1 | 0.559 | 0.781 | 0.587 | 0.469 |
| CCDC28B | -0.252 | 1.27 | -0.345 | -0.589 |
| GRIA1 | -0.0494 | 1.26 | 0.00575 | -0.0936 |
| HIGD1A | 0.449 | 1.95 | 0.515 | 0.217 |
| RPL36A | -0.136 | 1.77 | -0.0767 | -0.353 |
| KDM3B | -0.423 | 2.76 | -0.385 | -0.428 |
| PLPP7 | 0.148 | 2.62 | 0.073 | 0.0164 |
| GIP | 0.46 | 0.988 | 0.233 | 0.652 |
| RPL17 | 0.639 | 1.68 | 0.452 | 0.625 |
| EBP | 0.115 | 2.68 | 0.11 | 0.206 |
| SENP1 | -0.0107 | 1.3 | -0.0784 | 0.0657 |
| TCIRG1 | -0.215 | 2.92 | -0.146 | -0.13 |
| RDH16 | -0.21 | 2.48 | -0.235 | -0.316 |
| IFNB1 | -0.0535 | 2.8 | -0.0913 | -0.0973 |
| CYP46A1 | -0.405 | 2.61 | -0.196 | -0.527 |
| ZNF687 | 0.631 | 1.38 | 0.704 | 0.441 |
| PPP1R1B | 0.649 | 1.19 | 0.696 | 0.708 |
| CYBB | -0.351 | 2.88 | -0.238 | -0.476 |
| DNASE1L1 | -0.221 | 2.3 | -0.225 | -0.121 |
| KREMEN1 | -0.615 | 1.72 | -0.604 | -0.631 |
| SAMD9 | -0.303 | 2.45 | -0.375 | -0.336 |
| TSPAN2 | -0.204 | 1.84 | -0.0597 | -0.289 |
| WDR76 | -0.453 | 3.28 | -0.554 | -0.614 |
| SYTL2 | -0.313 | 2.73 | -0.682 | -0.207 |
| NLRP14 | 0.54 | 1.32 | 0.702 | 0.261 |
| SPG21 | -0.378 | 1.75 | -0.539 | -0.32 |
| IL1RAP | -0.123 | 1.42 | -0.0493 | 0.142 |
| NFIB | -0.0292 | 2.54 | 0.219 | 0.233 |
| AMIGO1 | 0.677 | 3 | 0.626 | 0.357 |
| EIF3J | -0.127 | 3.75 | 0.0993 | 0.347 |
| MPC1 | 0.0288 | 2.04 | 0.0874 | 0.0628 |
| SSR2 | -0.0711 | 1.74 | -0.307 | -0.0655 |
| FUT7 | -0.677 | 2.71 | -0.726 | -0.768 |
| SOCS4 | -0.173 | 1.67 | -0.222 | -0.241 |
| RPL13A | -0.0964 | 1.84 | -0.201 | 0.0429 |
| TBC1D2B | 0.21 | 1.79 | 0.356 | 0.148 |
| SH3GLB2 | -0.494 | 3.28 | -0.538 | -0.418 |
| ACSM3 | 0.38 | 2.57 | 0.325 | 0.36 |
| SLC35A1 | -0.0795 | 2.37 | 0.104 | -0.45 |
